Laboratory results as given in publication PMC7769281, “The plasticity of the pyruvate dehydrogenase complex confers a labile structure that is associated with its catalytic activity” (PLoS ONE, 2020).
These are yes or no findings as the source states them, for the method shown. In cells and extracts the contact can be indirect. A yes stands for co-enrichment or nearness to the bait. Other partners may have been found. Sequences can lack the tags named with a protein.

Target: T1, yeast PDC E3, Lpd1-5xFLAG (S. cerevisiae), P09624
T1 chain: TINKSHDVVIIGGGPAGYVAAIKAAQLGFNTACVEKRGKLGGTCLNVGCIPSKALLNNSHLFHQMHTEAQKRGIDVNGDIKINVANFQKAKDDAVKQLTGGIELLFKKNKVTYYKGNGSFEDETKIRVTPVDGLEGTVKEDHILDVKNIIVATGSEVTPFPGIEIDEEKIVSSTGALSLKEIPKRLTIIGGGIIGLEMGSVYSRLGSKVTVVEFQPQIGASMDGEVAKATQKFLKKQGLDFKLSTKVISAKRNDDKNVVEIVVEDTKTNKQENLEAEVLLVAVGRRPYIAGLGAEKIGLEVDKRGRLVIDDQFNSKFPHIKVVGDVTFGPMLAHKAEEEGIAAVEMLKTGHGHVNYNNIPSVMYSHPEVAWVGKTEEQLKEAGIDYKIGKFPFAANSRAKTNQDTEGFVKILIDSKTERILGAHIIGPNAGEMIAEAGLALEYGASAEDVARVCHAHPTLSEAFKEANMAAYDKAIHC
Assay: affinity purification with mass spectrometry; FLAG affinity purification (anti-FLAG M2 agarose, 4°C, 3xFLAG peptide elution) of E1pβ-5xFLAG or E3-5xFLAG from yeast cell extracts; MudPIT
Settings: remark: other sources report otherwise

binding: binds
B1: yeast PDC E1p α subunit (untagged, endogenous), P16387 34-420 (protein)
chain: ATLKTTDKKAPEDIEGSDTVQIELPESSFESYMLEPPDLSYETSKATLLQMYKDMVIIRRMEMACDALYKAKKIRGFCHLSVGQEAIAVGIENAITKLDSIITSYRCHGFTFMRGASVKAVLAELMGRRAGVSYGKGGSMHLYAPGFYGGNGIVGAQVPLGAGLAFAHQYKNEDACSFTLYGDGASNQGQVFESFNMAKLWNLPVVFCCENNKYGMGTAASRSSAMTEYFKRGQYIPGLKVNGMDILAVYQASKFAKDWCLSGKGPLVLEYETYRYGGHSMSDPGTTYRTRDEIQHMRSKNDPIAGLKMHLIDLGIATEAEVKAYDKSARKYVDEQVELADAAPPPEAKLSILFEDVYVKGTETPTLRGRIPEDTWDFKKQGFASRD
